We go through two sequences from patent US20070203061.

Chains of the proteins cited; added tags and fusions are not shown. Lines headed by an entry give the natural chain unless they say otherwise; changes in a name come on top. A line that says so, or that is headed by a name, gives the form on record, which may keep a tag or linker.
UniProt Q60980: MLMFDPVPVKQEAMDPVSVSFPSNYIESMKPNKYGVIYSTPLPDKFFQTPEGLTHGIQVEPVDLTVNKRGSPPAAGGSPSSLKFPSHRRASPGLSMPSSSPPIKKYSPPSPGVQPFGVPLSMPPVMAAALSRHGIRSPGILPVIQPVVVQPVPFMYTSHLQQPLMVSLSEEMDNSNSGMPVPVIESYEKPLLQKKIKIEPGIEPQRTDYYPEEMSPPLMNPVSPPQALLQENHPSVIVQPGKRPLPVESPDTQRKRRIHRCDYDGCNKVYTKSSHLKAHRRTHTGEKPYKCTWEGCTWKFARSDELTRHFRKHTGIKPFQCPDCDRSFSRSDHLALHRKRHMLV
UniProt O35739, other isoform, or with tags, fused parts or gaps: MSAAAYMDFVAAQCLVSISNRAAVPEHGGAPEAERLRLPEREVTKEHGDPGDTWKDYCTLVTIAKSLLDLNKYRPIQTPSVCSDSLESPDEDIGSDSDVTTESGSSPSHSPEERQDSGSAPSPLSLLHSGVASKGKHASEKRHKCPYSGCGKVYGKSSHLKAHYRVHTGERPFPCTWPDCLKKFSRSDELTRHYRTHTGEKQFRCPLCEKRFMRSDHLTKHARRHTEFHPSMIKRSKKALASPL
UniProt Q04207, whole entry: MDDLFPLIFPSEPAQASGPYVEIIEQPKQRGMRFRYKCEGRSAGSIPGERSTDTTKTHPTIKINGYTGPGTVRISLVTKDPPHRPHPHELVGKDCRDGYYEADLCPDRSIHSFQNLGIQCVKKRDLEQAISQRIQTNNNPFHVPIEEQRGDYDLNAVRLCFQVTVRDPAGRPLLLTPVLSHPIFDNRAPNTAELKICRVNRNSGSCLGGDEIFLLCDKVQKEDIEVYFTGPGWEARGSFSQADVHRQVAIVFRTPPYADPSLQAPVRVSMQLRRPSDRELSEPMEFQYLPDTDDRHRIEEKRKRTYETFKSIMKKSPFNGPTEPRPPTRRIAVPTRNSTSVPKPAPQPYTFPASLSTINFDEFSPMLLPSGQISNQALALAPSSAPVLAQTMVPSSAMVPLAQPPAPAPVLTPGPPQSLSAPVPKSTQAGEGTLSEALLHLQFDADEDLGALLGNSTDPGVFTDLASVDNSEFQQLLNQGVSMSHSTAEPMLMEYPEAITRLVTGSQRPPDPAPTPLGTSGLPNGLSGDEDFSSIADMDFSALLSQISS

One data set addresses KLF3 (Mus musculus) (UniProt Q60980). The experiment in a line: EMSA. The following applies: KLF3 not detected in complex by anti-KLF3 antibody; protein in an extract; protein details: native, nuclear extract of 3T3L1 adipocytes; label: 32P. Background: Mobility shift assays separate free from complexed probe on a gel.
The target in data set [1] is KLF9 (Mus musculus) (UniProt O35739). The experiment in a line: EMSA. As to conditions: anti-KLF9 supershift or reduction of complex I; competed by excess BTE, not by NF-kB consensus; complex absent in KLF9 knockout WAT; 2.5 mM MgCl2, 50 mM KCl, pH 7.6; protein in an extract; label: 32P.
The target in the next data set is NF-kB p65 (Mus musculus) (UniProt Q04207). Description: EMSA. As to conditions: p65 not detected in complex by anti-p65 antibody; protein in an extract; protein details: native, nuclear extract of 3T3L1 adipocytes; label: 32P.
Data set [2] concerns the target KLF9 (Mus musculus) (UniProt O35739). The experiment in a line: activity in cells. The following applies: KLF9 overexpression increased 32bp-tk-luc reporter in day 19 3T3L1 adipocytes; protein in cells; only the site is given.
The target in a further data set is KLF3 (UniProt Q60980). Description: one hybrid. As to conditions: ten independent cDNA isolates; 15 mM 3-aminotriazole; protein in cells.
Another data set concerns the target KLF9 (UniProt O35739). The experiment in a line: one hybrid. The following applies: two independent cDNA isolates; 15 mM 3-aminotriazole; protein in cells.
Another data set deals with NF-kB p65 (UniProt Q04207). Description: one hybrid. As to conditions: four independent cDNA isolates; 15 mM 3-aminotriazole; protein in cells.

For some of these results: At least one result comes from cells or an extract, where the contact may be indirect. For some of these results: The exact form of at least one protein or probe is not confirmed. For some of these results: No signal at the amounts used counts as a negative.

Regarding “GAAGCCCAAGCTGGGTTGTACCAGGTTCCCTA (double strand) [adiponectin promoter -188/-157 32-bp element]”, the binding result with KLF3 (Mus musculus) is recorded as “no binding”; in the data set with KLF9 (Mus musculus) [1], “binds”; with NF-kB p65 (Mus musculus), “no binding”. The “activity on this sequence” value with KLF9 (Mus musculus) [2] is on record as “active”.
For “GAAGCCCAAGCTGGGTTGTACCAGGTTCCCTAGAAGCCCAAGCTGGGTTGTACCAGGTTCCCTAGAAGCCCAAGCTGGGTTGTACCAGGTTCCCTA (double strand) [(32 bp)x3 trimer of -188/-157 element]”, the binding result with KLF3, with KLF9 and with NF-kB p65 was “binds” throughout.
